{
  "source": "patent US4423037A",
  "about": "“Inhibitors of peptide hormone action” (The General Hospital Corporation, priority 1982, dated 1983)",
  "key": {"parathyroid hormone [1]": {"tested_on": "parathyroid hormone", "test": "In vivo inhibition of PTH-stimulated urinary cyclic AMP excretion in thyroparathyroidectomized vitamin D deficient rats", "protocol": "The compound [Tyr-34]bPTH(7-34)amide was administered in vivo as an inhibitor of PTH stimulated biological activities. The effectivenss of the treatment was measured by measuring the urinary phosphate and cyclic AMP, standard procedures well known in endocrinology as valid measure of PTH activity. The dosage of PTH analogues used varied from more than 3.0 μg/Kg/hr to less than 15 mg/Kg/hr, optimally between 0.3 mg/Kg/hr and 1.5 mg/Kg/hr. Single bolus dosages were occassionally utilized as indicated containing the equivalent of many hours of the infusion procedure.\nMale weanling Holtzman rats were maintained on a purified vitamin D deficient diet containing 0.44% calcium and 0.30% phosphorous for 7 weeks. At this time, the rats weighed 130-170 g. Thyroparathyroidectomy of the vitamin D deficient rats was preformed under anesthesia with ketamin hydrochloride injected intratraperitoneally. The femoral vein was cannulated with a heparin-treated polyethylene tube, and the blood was collected via the catheter for determination of blood chemistries. When needed both femoral veins were cannulated. A polyethylene catheter was also inserted into the urinary bladder via the ventral approach. Each animal was fixed in a Ballman cage in a plastic chamber controlled at 24° C. All these surgical procedures were completed in about 40 minutes. A solution containing 7.5 mM calcium chloride, 5 mM magnesium chloride, 20 mM sodium chloride, 2.5 mM potassium chloride, and 4% glucose was immediately infused into the cannulated femoral veins. In addition, graded amounts of parathyroid hormone or its analogues were constantly infused into the rats starting 21 hours after the surgery.\nFIG. 2 is an experiment identical to that shown in FIG. 1, however, urinary cyclic AMP is now measured instead of urinary phosphate.\nIn the case of this experiment, the analogue was infused for 1/2 hour prior to the beginning of the infusion of native PTH at time 30 minutes. At the beginning of the native hormone infusion (30 minutes) a bolus of the 7-34 is given."}, "parathyroid hormone [2]": {"tested_on": "parathyroid hormone", "test": "In vivo inhibition of PTH-stimulated urinary phosphate excretion in thyroparathyroidectomized vitamin D deficient rats", "conditions": "for agonist activity in vivo: analogue administered in vivo; for antagonism of native PTH in vivo: urinary phosphate and cyclic AMP as measures of PTH activity"}, "[3]": {"conditions": "listed as [Tyr-34] bPTH (7-34) amide"}},
  "note": "Part of at least one peptide drawing is inferred or uncertain, most often the ends.",
  "data": [
    {"compound": "CSCC[C@H](NC(=O)[C@H](CO)NC(=O)[C@H](CO)NC(=O)[C@H](CC(C)C)NC(=O)[C@H](Cc1c[nH]cn1)NC(=O)[C@H](CCCCN)NC(=O)CNC(=O)[C@H](CC(C)C)NC(=O)[C@H](CC(N)=O)NC(=O)[C@H](Cc1c[nH]cn1)NC(=O)[C@H](CCSC)NC(=O)[C@@H](N)Cc1ccccc1)C(=O)N[C@@H](CCC(=O)O)C(=O)N[C@@H](CCCNC(=N)N)C(=O)N[C@H](C(=O)N[C@@H](CCC(=O)O)C(=O)N[C@@H](Cc1c[nH]c2ccccc12)C(=O)N[C@@H](CC(C)C)C(=O)N[C@@H](CCCNC(=N)N)C(=O)N[C@@H](CCCCN)C(=O)N[C@@H](CCCCN)C(=O)N[C@@H](CC(C)C)C(=O)N[C@@H](CCC(N)=O)C(=O)N[C@@H](CC(=O)O)C(=O)N[C@H](C(=O)N[C@@H](Cc1c[nH]cn1)C(=O)N[C@@H](CC(N)=O)C(=O)N[C@@H](Cc1ccc(O)cc1)C(N)=O)C(C)C)C(C)C", "note": "[[Tyr-34]bPTH(7-34)amide]", "values": [
      {"measurement": "production of urinary cyclic AMP (FIG. 6)", "setting": "parathyroid hormone [1]; analogue infused 1/2 hour before native PTH, bolus at 30 minutes", "result": "severely inhibited"},
      {"measurement": "inhibition of urine cyclic AMP excretion (FIG. 2)", "setting": "parathyroid hormone [1]; co-infusion of native parathyroid hormone and the 7-34 analogue", "result": "marked inhibition"},
      {"measurement": "effect on urine cyclic AMP production, substance administered alone (FIG. 2)", "setting": "parathyroid hormone [1]; same experiment as FIG. 1", "result": "no agonist-like effect"},
      {"measurement": "effect on urinary phosphate production, substance infused alone (FIG. 1)", "setting": "parathyroid hormone [2]; 7-34 analogue 13.5 nanomoles per hour i.v. alone", "result": "no stimulatory effect"},
      {"measurement": "inhibition of parathyroid hormone-stimulated phosphate excretion (FIG. 7)", "setting": "parathyroid hormone [2]; 50-fold molar dose rate of inhibitor to native PTH (13.5 nanamoles per hour)", "result": "approximately 50%"},
      {"measurement": "agonist activity in vivo", "setting": "parathyroid hormone [2]", "result": "lacked agonist activity"},
      {"measurement": "agonist activity in vivo", "setting": "parathyroid hormone [2]; [3]", "result": "does not act as an agonist"},
      {"measurement": "inhibition of the PTH-mediated effects", "setting": "parathyroid hormone [2]; analogue infused I.V. at 50-200 fold higher dose rate than the PTH", "result": "nearly complete inhibition"},
      {"measurement": "phosphate clearance and ratio of urinary phosphate to urinary creatine (FIG. 4)", "setting": "parathyroid hormone [2]; co-infusion with native PTH", "result": "severely decreases the amount of phosphate found in the urine"},
      {"measurement": "inhibition of parathyroid hormone-stimulated urinary phosphate production (FIG. 1)", "setting": "parathyroid hormone [2]; co-infusion: analogue 13.5 nanomoles per hour plus bolus, native PTH 0.27, at 3 to 4 hours and all time points", "result": "marked inhibition"},
      {"measurement": "antagonism of native PTH in vivo", "setting": "parathyroid hormone [2]", "result": "potent competitive antagonist"},
      {"measurement": "antagonism of native PTH in vivo", "setting": "parathyroid hormone [2]; [3]", "result": "inhibits PTH in vivo"}
    ]}
  ]
}
